Measured values published in publication doi:10.1101/046789.
Results are given in words; binding and its absence hold for the method and conditions named. A result given as binding can be weak or reduced; the word gives no strength.

Biological target: T1, Human Bcl10 (human) (UniProt O95999)
T1 sequence: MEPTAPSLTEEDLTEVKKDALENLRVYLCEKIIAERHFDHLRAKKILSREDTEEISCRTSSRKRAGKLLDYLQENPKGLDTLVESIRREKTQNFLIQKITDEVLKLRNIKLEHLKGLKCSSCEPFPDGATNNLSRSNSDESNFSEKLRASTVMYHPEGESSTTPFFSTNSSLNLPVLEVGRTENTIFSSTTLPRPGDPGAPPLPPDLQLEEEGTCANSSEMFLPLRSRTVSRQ
Assay: two-hybrid

Row | Substance | binding
1 | N. vectensis type 1 paracaspase paralog “A” | no binding
2 | N. vectensis type 1 paracaspase paralog “B” | binds
